Data source: PubChem BioAssay AID602196 (INSERM, 2012)
The deposit covers about 23,000 reagents; this is an unselected part. 455 of them (2%) were called active. 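Active includes both protection and sensitisation; some change values fall well beyond the stated -50 to +50 range.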 No sequences are given here. Not stated in the record: the amount of reagent.

- Test: 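Knock-downs that protect lung cancer cells from cisplatin or sensitise them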
- Cells: human A549 lung cancer cells
- Reagent: siRNA pair against human genes
- Time to read-out: 48 h transfection before cisplatin; time from cisplatin to read-out not stated
- Conditions: cisplatin at a dose killing half of control-siRNA cells; exact dose and duration not given
- Measurement: 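Cisplatin cell death as a shift from the 50% death seen with control siRNA; siRNAs toxic or growth-blocking alone scored 0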
- Scale: two-siRNA summed score (-2 to +2): higher = both siRNAs protect from cisplatin killing; -2 means both sensitise; mean protection from cisplatin (shift in death) and protection from cisplatin (shift in death), siRNA C and protection from cisplatin (shift in death), siRNA D: higher = protection from cisplatin killing
- Active means: 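Each siRNA scores 0 if harmful alone by LDH or WST-1, otherwise +1 if it reduces and -1 if it increases cisplatin killing; a gene is active when both siRNAs agree (sum +2 or -2)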
- Calls: active = both siRNAs shift cisplatin killing the same way; inactive = no consistent shift, or siRNA harmful alone

no.	target gene	two-siRNA summed score (-2 to +2)	mean protection from cisplatin (shift in death) (%)	protection from cisplatin (shift in death), siRNA C (%)	protection from cisplatin (shift in death), siRNA D (%)	outcome
1	ZER1	1	14.4	6.5	22.2	inactive
2	OC90	0	2.5	3.4	1.6	inactive
3	STAU2	-1	-14.9	-0.1	-29.7	inactive
4	RFPL3	-1	-17.8	-9.7	-25.8	inactive
5	LINC02381	1	15.1	20.4	9.8	inactive
6	CLDN19	0	-2.2	0.6	-5.1	inactive
7	LOC391037	0	4.3	1.4	7.2	inactive
8	LYSET	0	-0.7	11.9	-13.2	inactive
9	COL19A1	0	0.2	5.2	-4.8	inactive
10	LOC440789	1	21.9	15.4	28.4	inactive
11	SHC4	0	5.5	22.9	-12	inactive
12	CHP2	0	-5.3	-4.4	-6.1	inactive
13	MGC3196	0	13	11.4	14.6	inactive
14	LSM5	0	-2.9	-6.7	0.8	inactive
15	KIF19	0	1.7	-12.8	16.3	inactive
16	LOC339274	0	14.7	16.1	13.3	inactive
17	PFDN1	0	13.3	12.9	13.7	inactive
18	PUS7	0	12.8	19.5	6.1	inactive
19	EFCAB12	-1	-0.4	20.8	-21.5	inactive
20	RASSF3	0	8	-1.7	17.7	inactive
21	ODAD3	-1	-12.4	-19	-5.8	inactive
22	TG	0	0.5	4.2	-3.1	inactive
23	LIPG	-1	-13.9	-2	-25.9	inactive
24	CLTB	0	5.2	10.8	-0.3	inactive
25	PGLYRP1	0	-18.9	-44.5	6.7	inactive
26	ANKMY1	0	3.3	-0.1	6.6	inactive
27	H1-6	1	-4.6	-18.6	9.4	inactive
28	TAS2R45	0	-8.6	-17.5	0.2	inactive
29	LXN	0	-9.9	-23.2	3.4	inactive
30	SLC20A2	1	12.1	20.7	3.5	inactive
31	TASOR	0	-5	-13.5	3.5	inactive
32	RASA2	0	4.6	-2.4	11.6	inactive
33	LOC440235	0	5.5	0.2	10.8	inactive
34	OXR1	0	-0.2	-2.2	1.9	inactive
35	HPF1	0	-7.1	-3.1	-11.2	inactive
36	CNOT10	-1	-2	6.6	-10.5	inactive
37	LOC401052 (retired record)	0	-3.1	-13.2	7.1	inactive
38	MTARC2	0	-0.7	3.7	-5.1	inactive
39	ANO9	1	22.7	19.5	25.8	inactive
40	LOXL2	0	-2	-0.9	-3.1	inactive
41	ANGPT2	0	-5.9	-7.2	-4.5	inactive
42	ZNF295-AS1	0	-3.1	-10.4	4.2	inactive
43	CLK1	0	19.8	28.4	11.3	inactive
44	OR10J3	0	8.8	10.7	6.9	inactive
45	RIMBP2	1	10.7	6.3	15	inactive
46	ZNF225	1	7.2	-0.6	14.9	inactive
47	ZNF322P1	0	14.2	10.9	17.5	inactive
48	CITED1	-1	-15.9	-26.5	-5.4	inactive
49	EVX1	0	-4.1	-11.4	3.2	inactive
50	LOC151256	0	5.6	8.4	2.9	inactive
51	PPP1R1A	0	18.7	-0.6	38	inactive
52	SRPK2	-1	-3.4	8.4	-15.3	inactive
53	ZNF345	0	-7.1	-7.5	-6.8	inactive
54	MLXIP	0	6.4	2.3	10.4	inactive
55	FANCF	0	12.3	0.8	23.8	inactive
56	ZBTB49	0	5.6	20.3	-9.1	inactive
57	ZNF528-AS1	1	2	-10.3	14.2	inactive

Quoted from the entries so far (5 entries):
no.	target gene	two-siRNA summed score (-2 to +2)	mean protection from cisplatin (shift in death) (%)	protection from cisplatin (shift in death), siRNA C (%)	protection from cisplatin (shift in death), siRNA D (%)	outcome
36	CNOT10	-1	-2	6.6	-10.5	inactive
37	LOC401052 (retired record)	0	-3.1	-13.2	7.1	inactive
38	MTARC2	0	-0.7	3.7	-5.1	inactive
39	ANO9	1	22.7	19.5	25.8	inactive
40	LOXL2	0	-2	-0.9	-3.1	inactive
